Data taken from patent US20100178296A1.
No constants are given. Whether binding was seen depends on the method and setting. Binding seen in cells or lysates may run through a third protein. Some binding calls cover weakened binding; strength is not graded here.

Sequences of proteins named here, by UniProt entry; tags and fusion partners are left off. Residues count along the entry.
UniProt O54885, residues 22-114: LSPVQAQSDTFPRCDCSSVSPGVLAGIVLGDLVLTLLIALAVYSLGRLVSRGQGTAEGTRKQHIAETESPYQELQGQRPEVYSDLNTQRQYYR

Target: T1, cynomolgus CD200RLa expressed on mouse mast cells or on Ba/F3 cells with human DAP12 (cynomolgus monkey)
T1 sequence: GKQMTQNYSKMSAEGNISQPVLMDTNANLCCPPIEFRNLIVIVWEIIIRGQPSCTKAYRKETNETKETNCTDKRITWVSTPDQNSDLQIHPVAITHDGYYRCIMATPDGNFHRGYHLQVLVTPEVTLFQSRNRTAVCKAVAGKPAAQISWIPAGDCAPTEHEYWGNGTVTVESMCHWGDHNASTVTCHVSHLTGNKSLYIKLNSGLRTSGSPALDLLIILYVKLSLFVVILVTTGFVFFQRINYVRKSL
Test: co-immunoprecipitation with cynomolgus CD200RLa by DX182 from mouse mast cell lysate (1% digitonin), Western blot with rabbit anti-mouse DAP12

- binding: binds
Substance: mouse DAP12, endogenous in mouse mast cells (from UniProt O54885 22-114)
